Source: PubChem BioAssay AID686943 (Drosophila RNAi Screening Center, 2013)

Screen: 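Search across the genome for regulators of signalling from receptor tyrosine kinase to ERK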 (primary screen)
System: Drosophila S2R+ haemocyte-like cells expressing YFP-tagged ERK (Rolled)
Reagents: long dsRNA against Drosophila genes
Conditions: insulin stimulation versus unstimulated cells; dose and duration not given
Detection: 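Per-plate z-scores of phospho-ERK immunostaining normalised to YFP-tagged ERK, measured with and without insulin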
Reading the numbers: replicate 1, z-score of dpERK with insulin and replicate 2, z-score of dpERK with insulin: higher = more active ERK per ERK-YFP after insulin; replicate 1, z-score of dpERK under basal conditions: higher = more basal active ERK per ERK-YFP; replicate 1, z-score of ERK-YFP with insulin: higher = more YFP-tagged ERK signal
The deposit covers about 23,000 reagents; shown is a random part of those with a known target gene and a result. 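Extra replicates exist only for a retested subset of genes; insulin dose and duration not given; both raised and lowered dpERK matter.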 Reagent sequences are not shown. The record does not give: the amount of reagent, the time to read-out.

no.	gene knocked down	DRSC id	replicate 1, z-score of dpERK with insulin	replicate 2, z-score of dpERK with insulin	replicate 1, z-score of dpERK under basal conditions	replicate 1, z-score of ERK-YFP with insulin
1	Atet (ABC transporter expressed in trachea)	DRSC00263	1.39	0.67	1.48	-0.17
2	mthl14 (methuselah-like 14)	DRSC07865	-0.23	-0.08	-0.2	0.61
3	CG3224	DRSC18295	0.33	1.2	0.19	0.37
4	Hsp60A (Heat shock protein 60A)	DRSC20254	-0.09	-0.11	0.73	0.04
5	Als2 (Amyotrophic lateral sclerosis 2)	DRSC11806	-0.49	-0.5	-0.21	0.33
6	CG3008	DRSC00560	-0.11	0.2	2.32	-0.11
7	Ccm3 (Cerebral cavernous malformation 3)	DRSC15711	-1.58	-0.45	-0.59	0.29
8	kermit	DRSC06074	0.78	-0.15	-0.17	-0.27
9	COX2 (retired record)	DRSC21276	0.05	0.02	0.67	0.19
10	CG2750	DRSC19867	0.26	-0.34	0.1	-0.37
11	CG7079	DRSC16192	0.1	0.14	-0.88	1.04
12	CG42824	DRSC13230	0.87	0.67	0.56	-0.31
13	tos (tosca)	DRSC03624	0.83	0.25	-0.23	-0.33
14	tor (torso)	DRSC07707	0.27	-0.2	0.17	-0.3
15	CG30275	DRSC04163	0.36	0.41	-0.32	0.66
16	puml (pummelig)	DRSC06793	1.17	0.11	-0.23	-0.36
17	CG34269	DRSC07884	0.14	-0.49	-0.05	0.01
18	galectin	DRSC00305	0	-0.04	0.69	0.02
19	IPIP (Inositol phosphatase interacting protein)	DRSC02164	-0.2	-0.5	-0.52	0.12
20	c(2)M (crossover suppressor on 2 of Manheim)	DRSC01922	0.62	0.54	-1.49	0.14
21	slou (slouch)	DRSC17058	1	-0.1	1.04	-0.2
22	CG7484	DRSC10853	-0.05	-0.4	-1.13	-0.19
23	Ggt-1 (gamma-glutamyl transpeptidase)	DRSC19993	-0.12	-0.43	0.48	0.04
24	Bmcp	DRSC10808	0.06	-0.03	-0.2	0.45
25	CG16998	DRSC10235	0.24	0.48	-0.03	0.06
26	CG31562 (retired record)	DRSC12273	-0.56	-0.97	0.46	1.61
27	CG31562 (retired record)	DRSC12274	-0.13	0.31	0.81	1.12
28	Vha16-2 (Vacuolar H[+] ATPase 16kD subunit 2)	DRSC10873	-0.25	-0.03	0.98	0.06
29	SelT (Selenoprotein T)	DRSC02732	-0.34	-0.07	-0.11	0.11
30	Mpc1	DRSC14770	1.89	0.04	-0.48	-0.69
31	mRpL52 (mitochondrial ribosomal protein L52)	DRSC06585	0.79	0.86	0.14	0.94
32	Cyp4g15 (Cytochrome P450 4g15)	DRSC20240	-0.92	-0.15	-0.6	0.6
33	CG9776	DRSC12127	-0.13	0.46	-0.07	0.26
34	Rchy1 (Ring finger and CHY zinc finger domain containing 1)	DRSC02542	-0.25	-0.52	-0.54	-0.05
35	Chro (Chromator)	DRSC11630	-1.67	-1.02	-1.56	0.32
36	osk (oskar)	DRSC17023	0.4	0.59	-0.16	0.23
37	CG15296	DRSC17983	-0.87	-0.15	-0.13	0.66
38	Cyp4e3 (Cytochrome P450 4e3)	DRSC03306	0.68	0.09	-0.42	-0.09
39	mmy (mummy)	DRSC02002	0.36	0.07	-0.59	0.26

Copied from the list.
Entry of osk (oskar) [DRSC17023] in “replicate 2, z-score of dpERK with insulin”: 0.59
Value of IPIP (Inositol phosphatase interacting protein) [DRSC02164] under “replicate 1, z-score of ERK-YFP with insulin”: 0.12
Under “replicate 2, z-score of dpERK with insulin”, Rchy1 (Ring finger and CHY zinc finger domain containing 1) [DRSC02542] is entered as -0.52
For “replicate 1, z-score of dpERK under basal conditions”, CG9776 [DRSC12127] reads -0.07
Cyp4g15 (Cytochrome P450 4g15) [DRSC20240], replicate 2, z-score of dpERK with insulin = -0.15
